Measurements as given in BigSolDB 2.1.

CC1=C(C(=O)O)N2C(=O)[C@@H](NC(=O)[C@H](N)c3ccccc3)[C@H]2SC1.O
solubility (mole fraction)
Details	278.1 K	280.1 K	283.1 K	293.1 K	303.1 K	313.1 K	323.1 K
in acetonitrile	9.5e-06	1.52e-05	2.37e-05	–	–	–	–
in methanol	0.000235	0.000281	0.000354	0.000606	0.000951	–	–
in water	–	–	0.000533	0.000721	0.000826	0.00096	0.00125
